Screen size: about 130,000 compounds; about 1,000 (0.77%) were called active. This list was built around the results that the source calls inconclusive (neither active nor inactive); the mix of calls is not that of the screen.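 How the source made its calls: active means activation at 2 µM above a set limit, confirmed on inspection of the cell images; inconclusive means above the set limit but not confirmed on image inspection; inactive means the rest.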
test: activators of insulin promoter-driven GFP, primary screen, imaging, TRM-6 cells (human fetal islet line), eGFP reporter, cell count (AID 1296;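 further: share of cells whose green reporter signal exceeds an intensity cutoff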); settings: at 2 µM, hits give high values, plate-scaled: unstimulated 0, stimulated control 100
In short: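 test system = TRM-6 insulin promoter–eGFP reporter cells | benchmarks = stimulated versus unstimulated wells as plate controls | read-out basis = percent cells above green-intensity threshold, converted to percent activation versus plate controls | detection = fixed-cell fluorescence microscopy, eGFP plus Hoechst | incubation = tamoxifen pre-incubation 15 h overnight, then compound exposure 48 h at 37 °C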

**Q.** For `COC(=O)N/N=C\C=C\c1ccc2c(c1)OCO2`, which activation is on record?
**A.** Its activation is inactive: 100%.

**Q.** With `COC(=O)c1c(-c2ccncc2)csc1NC(=O)c1ccoc1C` as the compound, how does the activation read?
**A.** The activation was inactive: -8.57%.

**Q.** With `COc1cc(NC(=S)NNC(=O)CC(C)C)c(OC)cc1Cl` as the compound, how does the activation read?
**A.** The activation was inactive: 9.38%.

**Q.** For `CCCCn1c(SCC(=O)N2CCC(C)CC2)nc2ccsc2c1=O`, which activation is on record?
**A.** Its activation is inconclusive: 89.5%.

**Q.** With `OC(COc1ccc(OCc2ccccc2)cc1)CN1CCOCC1` (stereo not drawn) as the compound, how does the activation read?
**A.** The activation was inconclusive: 90.3%.

**Q.** For `Cn1ccnc1C(=O)c1cc(SCC(=O)NCc2ccccc2)nc2ccccc12`, which activation is on record?
**A.** Its activation is inactive: 0%.

**Q.** Which activation does the source give for `O=C(Nc1ccccc1O)c1cccc(S(=O)(=O)N2CCOCC2)c1` here?
**A.** The activation was active: 462%.

**Q.** With `Cc1ccc2c(c1)Oc1ccc(NC(=O)CCl)cc1C(=O)N2` as the compound, how does the activation read?
**A.** Its activation is inconclusive: 200% [cytotoxic].

**Q.** With `O=C(Nc1ccccc1C(=O)N1CCCC1)C1COc2ccccc2O1` (stereo not drawn) as the compound, how does the activation read?
**A.** The activation was inactive: -8.33%.

**Q.** Which activation does the source give for `CC(C)OC(=O)NCCOC(=O)Nc1ccc(Cl)c(Cl)c1` here?
**A.** Its activation is inconclusive: 419%.

**Q.** For `CC(=O)Nn1cnc2c(c1=O)C1(CCCC1)Cc1ccccc1-2`, which activation is on record?
**A.** Its activation is inconclusive: 471%.

**Q.** For `COc1ccc(S(=O)(=O)NC2CCCCC2)c(C)c1C`, which activation is on record?
**A.** Its activation is inactive: 9.52%.

**Q.** For `CCC(=O)NC(=S)Nc1ccc(OC)cc1OC`, which activation is on record?
**A.** The activation was inactive: -6.06%.

**Q.** Which activation does the source give for `CC(C(=O)NCc1ccco1)n1cc([N+](=O)[O-])cn1` (stereo not drawn) here?
**A.** Its activation is inactive: 0%.

**Q.** For `N#Cc1c2c(c(N3CCN(c4ccccn4)CC3)n3c1nc1ccccc13)CCC2`, which activation is on record?
**A.** The activation was inconclusive: 471%.

**Q.** For `O=C(O)CCCn1cc(NC(=O)COc2cc(F)ccc2[N+](=O)[O-])cn1`, which activation is on record?
**A.** Its activation is inactive: -7.14%.

**Q.** For `Cc1ccc(C(=O)Nc2sc3c(c2C(=O)NCc2ccco2)CCCC3)cc1`, which activation is on record?
**A.** Its activation is inconclusive: 457%.

**Q.** Which activation does the source give for `O=C(NCCCO)/C(=C\C=C\c1ccccc1)NC(=O)c1ccccc1Cl` here?
**A.** Its activation is inconclusive: 234%.

**Q.** For `COc1cc(C2C(C#N)=C(N)OC3=C2C(=O)CC(C)(C)C3)ccc1OC(=O)N1CCOCC1` (stereo not drawn), which activation is on record?
**A.** The activation was active: 600%.

**Q.** For `COC(=O)C1=C(C)N=c2s/c(=C/c3ccoc3)c(=O)n2C1c1ccccc1` (stereo not drawn), which activation is on record?
**A.** The activation was inconclusive: 444%.

**Q.** With `Cc1c(NC(=O)Cn2[nH]c(=O)c3ccccc3c2=O)c(=O)n(-c2ccccc2)n1C` as the compound, how does the activation read?
**A.** Its activation is inconclusive: 508%.

**Q.** For `CCn1c(Cn2nnc(-c3ccccc3)n2)nnc1SCC(=O)Nc1cccc(C(C)=O)c1`, which activation is on record?
**A.** Its activation is inconclusive: 136%.

**Q.** For `CCCOc1c(Br)cc(C2C3=C(CCCC3=O)N(C)C3=C2C(=O)CCC3)cc1OC`, which activation is on record?
**A.** The activation was inactive: -2.7%.

**Q.** With `CCOc1cccc(N2C(=O)CC(N3CCN(c4ccc(S(=O)(=O)CC)cc4)CC3)C2=O)c1` (stereo not drawn) as the compound, how does the activation read?
**A.** The activation was active: 80%.

**Q.** With `NC(=O)C1CCN(C2CC(=O)N(c3ccc(F)c(Cl)c3)C2=O)CC1` (stereo not drawn) as the compound, how does the activation read?
**A.** The activation was active: 85.7%.

**Q.** Which activation does the source give for `O=Nc1c(O)n(Cc2cccc(Cl)c2)c2ccccc12` here?
**A.** The activation was inconclusive: 131%.

**Q.** For `Cc1ccc(OCC(=O)N2CCN(C(=O)c3cccc(F)c3)CC2)cc1`, which activation is on record?
**A.** The activation was inconclusive: 426%.

**Q.** With `Cc1ccc(NC(=O)CN(C)CC(=O)Nc2ccccc2C(=O)Nc2ccccc2)cc1` as the compound, how does the activation read?
**A.** The activation was inconclusive: 250%.

**Q.** With `CC(C)(C)c1nc2scc(-c3ccc(Br)cc3)c2c(=O)o1` as the compound, how does the activation read?
**A.** Its activation is inconclusive: 158%.

**Q.** Which activation does the source give for `Cc1n[nH]c(=S)n(NC(=O)/C=C/C(=O)Nn2c(=S)[nH]nc(C)c2=O)c1=O` here?
**A.** Its activation is inconclusive: 153%.

**Q.** For `CN1/C(=C/c2cc[n+](C)c3ccccc23)C=Cc2ccccc21`, which activation is on record?
**A.** Its activation is inconclusive: 210%.

**Q.** For `Cc1ccc(S(=O)(=O)Cn2nnnc2C(CC(C)C)N2CCN(c3ccccc3)CC2)cc1` (stereo not drawn), which activation is on record?
**A.** The activation was inconclusive: 654%.

**Q.** For `CC(C)(C)NC(=O)CN(C(=O)Cn1nnc(-c2ccc(Cl)cc2)n1)C1CCN(Cc2ccccc2)CC1`, which activation is on record?
**A.** Its activation is inactive: 6.67%.

**Q.** With `CC1CC(C)CN(CCCNC(=O)C2CCN(S(=O)(=O)N3CCCCC3)CC2)C1` (stereo not drawn) as the compound, how does the activation read?
**A.** The activation was inactive: 0%.

**Q.** Which activation does the source give for `COc1ccccc1C(C)NC(=O)CCOc1cccc(C)c1` (stereo not drawn) here?
**A.** Its activation is inactive: -8.33%.

**Q.** Which activation does the source give for `NC(=O)CSC1=Nc2ccccc2C2=NC(c3ccccc3)C(=O)N12` (stereo not drawn) here?
**A.** The activation was inactive: -78.6%.

**Q.** For `CCCCNC(=O)NS(=O)(=O)c1cnccc1Sc1ccc(Cl)cc1`, which activation is on record?
**A.** Its activation is inactive: 7.89%.

**Q.** For `CCOc1ccc(C(=O)OCCN(C)C)cc1`, which activation is on record?
**A.** The activation was inconclusive: 75%.

**Q.** For `N#CCC(=N)N1CCN(c2ccccc2Cl)CC1`, which activation is on record?
**A.** Its activation is active: 177%.

**Q.** For `Cc1cc(/C=N/n2cnnc2)c(C)n1-c1ccc(Cl)cc1Cl`, which activation is on record?
**A.** Its activation is inconclusive: 462%.

**Q.** With `O=C(O)c1cc(NCc2ccccc2)ccc1N1CCOCC1` as the compound, how does the activation read?
**A.** The activation was inconclusive: 236%.

**Q.** With `C=C1C(O)C[C@H]2C(=C)CCC3[C@H](OC(=O)[C@]3(O)CO)[C@@H]12` (stereo partly drawn) as the compound, how does the activation read?
**A.** Its activation is active: 275%.

**Q.** With `CCN(CC)CCn1c(=N)n(CC(O)c2ccco2)c2ccccc21` (stereo not drawn) as the compound, how does the activation read?
**A.** The activation was active: 508%.

**Q.** With `O=C(O)CSC(NC(=O)c1cccnc1)(C(F)(F)F)C(F)(F)F` as the compound, how does the activation read?
**A.** The activation was inconclusive: 129%.

**Q.** For `O=C(O)/C=C/C(=O)NCCc1ccccc1`, which activation is on record?
**A.** The activation was active: 321%.

**Q.** With `COCCn1c(SCc2ccccc2F)nc2ccccc2c1=O` as the compound, how does the activation read?
**A.** Its activation is inactive: -9.09%.

**Q.** For `Cc1nn(-c2ccc(F)cc2)c(Cl)c1/C=C1\C(=O)Nc2ccccc21`, which activation is on record?
**A.** Its activation is inconclusive: 206%.

**Q.** With `CCC1(CC)C(=O)NC(=O)NC1=NCCc1c[nH]c2ccccc12` as the compound, how does the activation read?
**A.** Its activation is inconclusive: 177%.

**Q.** With `COc1cc(C(=O)NCC(=O)N/N=C(C)\C=C\c2ccccc2)cc(OC)c1OC` as the compound, how does the activation read?
**A.** The activation was inactive: -6.67%.

**Q.** For `O=C(COc1ccccc1)N/N=C/c1cc2c(cc1[N+](=O)[O-])OCO2`, which activation is on record?
**A.** The activation was inconclusive: 500%.

**Q.** For `CSc1ccc(/C=N/NC(=O)c2ccc(C)c(C)c2)cc1`, which activation is on record?
**A.** Its activation is inactive: 8.33%.

**Q.** Which activation does the source give for `O=C(CCN1CCN(Cc2ccccc2)CC1)Nc1ccc(OCc2ccccc2)cc1` here?
**A.** The activation was inconclusive: 111%.

**Q.** With `CCN(CC)C(=O)CSCc1cnn(-c2ccccc2)c1-n1cccc1` as the compound, how does the activation read?
**A.** The activation was inactive: -4.22%.

**Q.** For `Cc1ccc(S(=O)(=O)n2c3ccc(Cl)cc3c3nc(C)sc32)cc1`, which activation is on record?
**A.** Its activation is inactive: -80%.

**Q.** With `CCCCCCc1cc2cc(-c3nnc(-c4ccccc4O)o3)c(=O)oc2cc1O` as the compound, how does the activation read?
**A.** The activation was inconclusive: 270%.

**Q.** Which activation does the source give for `CCN(CC)CCCn1c(C)cc2c(c1=O)C(c1ccc(OC)c(OC)c1OC)C(C#N)=C(N)O2` (stereo not drawn) here?
**A.** The activation was inactive: 50%.

**Q.** For `CCN1CCN(C(=O)c2ccc(Cl)c(S(=O)(=O)N3CCOCC3)c2)CC1`, which activation is on record?
**A.** The activation was inconclusive: 500%.

**Q.** Which activation does the source give for `COC(=O)c1cnn2c(C(F)(F)F)cc(-c3ccccc3)nc12` here?
**A.** Its activation is inconclusive: 500%.

— PubChem BioAssay AID1296 (Columbia University Molecular Screening Center, 2008)
